Measured values published in article PMC12000397.
Results are given in words; binding and its absence hold for the method and conditions named. Some entries that bind do so weakly or less than the wild type.

By UniProt entry, the sequences of proteins in these tests, tags left out. Where a name states a change or a piece, a line headed by the entry shows the natural chain unless it says otherwise. Chains listed by the source or under a name are the forms on record and can include a tag or linker. Residues count along the entry.
UniProt P20029, residues 27-655: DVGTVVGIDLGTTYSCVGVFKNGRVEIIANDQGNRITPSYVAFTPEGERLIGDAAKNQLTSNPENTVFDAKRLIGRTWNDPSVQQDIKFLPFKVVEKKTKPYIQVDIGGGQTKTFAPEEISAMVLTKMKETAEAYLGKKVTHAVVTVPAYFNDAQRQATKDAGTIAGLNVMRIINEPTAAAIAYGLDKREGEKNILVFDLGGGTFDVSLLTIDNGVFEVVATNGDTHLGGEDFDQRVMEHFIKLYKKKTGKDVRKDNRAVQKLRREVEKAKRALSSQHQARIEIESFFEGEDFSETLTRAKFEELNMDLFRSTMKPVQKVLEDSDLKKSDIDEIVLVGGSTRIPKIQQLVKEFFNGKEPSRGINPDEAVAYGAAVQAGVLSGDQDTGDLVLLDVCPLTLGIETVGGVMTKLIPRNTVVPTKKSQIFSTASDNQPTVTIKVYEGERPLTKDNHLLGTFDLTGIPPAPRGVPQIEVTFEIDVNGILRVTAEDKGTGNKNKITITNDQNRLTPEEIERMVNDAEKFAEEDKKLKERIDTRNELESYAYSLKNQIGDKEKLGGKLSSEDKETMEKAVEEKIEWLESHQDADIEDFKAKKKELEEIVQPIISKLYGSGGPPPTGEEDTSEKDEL
proIGF2 (P01344, residues 25-180): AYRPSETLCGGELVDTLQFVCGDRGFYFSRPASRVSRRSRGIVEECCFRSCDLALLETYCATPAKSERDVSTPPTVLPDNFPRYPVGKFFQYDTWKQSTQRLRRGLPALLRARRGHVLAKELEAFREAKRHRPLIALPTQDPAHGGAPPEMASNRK
proIGF2_(92-120) fragment (Ext. Site 1), FITC-labeled (P01344, form named): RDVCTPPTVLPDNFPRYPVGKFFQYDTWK
Grp94_(K467A) (P08113, form named): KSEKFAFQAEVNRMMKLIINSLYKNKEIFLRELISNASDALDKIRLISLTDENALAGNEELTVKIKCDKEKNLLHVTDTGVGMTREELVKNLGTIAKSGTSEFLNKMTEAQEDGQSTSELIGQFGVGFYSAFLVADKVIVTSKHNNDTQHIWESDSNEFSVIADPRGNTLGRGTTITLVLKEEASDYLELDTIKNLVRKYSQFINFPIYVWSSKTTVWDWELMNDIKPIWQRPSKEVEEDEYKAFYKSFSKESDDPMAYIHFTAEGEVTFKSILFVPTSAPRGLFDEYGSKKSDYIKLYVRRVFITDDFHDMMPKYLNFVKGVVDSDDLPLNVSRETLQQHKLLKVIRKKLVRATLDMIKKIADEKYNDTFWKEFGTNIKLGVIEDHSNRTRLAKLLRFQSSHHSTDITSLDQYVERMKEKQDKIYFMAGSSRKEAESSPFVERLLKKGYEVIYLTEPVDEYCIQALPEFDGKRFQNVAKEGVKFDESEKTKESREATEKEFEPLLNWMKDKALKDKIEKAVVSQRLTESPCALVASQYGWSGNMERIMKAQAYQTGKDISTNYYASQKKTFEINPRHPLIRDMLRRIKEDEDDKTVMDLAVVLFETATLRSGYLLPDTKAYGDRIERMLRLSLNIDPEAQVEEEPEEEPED

Tests used:
[1] = biological target: Mouse BiP (residues 27-655) (mouse) (UniProt P20029); experiment: fluorescence polarisation; FITC-labeled client preincubated with BiP, Grp94 then added; BiP and Grp94 varied together (Fig. 6A, B; apparent) or 5 μM BiP and 5 μM Grp94 monomer (ΔP, Fig. 6C), with and without inhibitors; ADP conditions; 60 mM HEPES pH 7.0, 50 mM KCl, 5 mM MgCl2, 1 mM DTT, 0.75 mg/mL BSA, 1 mM ADP, 30 °C; both purified
[2] = biological target: proIGF2_(92-120) fragment (Ext. Site 1), FITC-labeled (UniProt P01344); experiment: fluorescence polarisation; FITC-labeled client constructs, BiP titrated; ATP conditions (Supplementary Fig. 12D); both purified
proIGF2 = proIGF2 (UniProt P01344); experiment: dynamic light scattering; mean hydrodynamic radius at a concentration of 1 μM; both purified

For “Grp94_(K467A) (from UniProt P08113 72-765)”, the binding [1] was “no binding (tested: 5 μM Grp94 monomer)”.
With “Mouse BiP (residues 27-655) (from UniProt P20029 27-655)” the binding [2] was “binds”.
For proIGF2 (from UniProt P01344 25-180), the binding (proIGF2) was “binds”.
